Measured values taken from publication PMC4548209.
Where two headings read alike, the source gives them in different places. No constants are given. Whether binding was seen depends on the method and setting. For some assays here: Binding seen in cells or lysates may run through a third protein. Some results given as binding are weak or reduced against the parent protein; the word gives no strength. For some assays here: Where a sequence is shown, tags or fusion partners need not be part of it. One block for each molecule: values may come before it.

Sequences of proteins named here, by UniProt entry; tags and fusion partners are left off. A change or cut given only in a name is not applied to a line headed by its entry.
UniProt P42582: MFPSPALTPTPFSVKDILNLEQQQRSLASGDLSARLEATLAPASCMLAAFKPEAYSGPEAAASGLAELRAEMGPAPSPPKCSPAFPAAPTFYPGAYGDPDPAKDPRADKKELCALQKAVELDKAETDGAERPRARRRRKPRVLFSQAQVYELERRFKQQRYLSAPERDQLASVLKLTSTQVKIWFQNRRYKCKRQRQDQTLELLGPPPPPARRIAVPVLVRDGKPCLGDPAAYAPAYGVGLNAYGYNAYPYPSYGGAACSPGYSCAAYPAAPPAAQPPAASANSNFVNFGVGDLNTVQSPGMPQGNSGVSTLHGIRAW
UniProt Q08369: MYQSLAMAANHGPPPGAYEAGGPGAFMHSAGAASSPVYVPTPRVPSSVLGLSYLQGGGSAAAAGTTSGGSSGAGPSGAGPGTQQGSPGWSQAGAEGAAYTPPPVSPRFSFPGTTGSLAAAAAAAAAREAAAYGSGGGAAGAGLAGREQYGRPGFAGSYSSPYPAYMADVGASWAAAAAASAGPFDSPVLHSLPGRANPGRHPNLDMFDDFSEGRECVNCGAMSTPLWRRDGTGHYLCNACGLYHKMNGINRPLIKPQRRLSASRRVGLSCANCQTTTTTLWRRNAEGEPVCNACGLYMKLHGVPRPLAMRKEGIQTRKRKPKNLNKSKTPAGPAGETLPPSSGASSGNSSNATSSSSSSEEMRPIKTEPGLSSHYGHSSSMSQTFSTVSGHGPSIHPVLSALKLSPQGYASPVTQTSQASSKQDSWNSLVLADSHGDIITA

Legend:
[1] = biological target: Full-length NKX2-5 (yeast two-hybrid fusion) (mouse) (UniProt P42582); test: two-hybrid; pGADT7-AD and pGBKT7-DBD fusions co-transformed into S. cerevisiae AH109; interaction as growth on -Ade/-His/-Leu/-Trp plates; three independent experiments
[2] = biological target: T1, TBX5 (Rluc-PCA fusion) (mouse) (UniProt P70326); test: split reporter; Renilla luciferase protein fragment complementation assay (Rluc-PCA) in HEK 293T cells; Rluc8.1 and Rluc8.2 fusions from a truncated CMV promoter; read 24 hr after transfection, normalised to ß-galactosidase
T1 sequence: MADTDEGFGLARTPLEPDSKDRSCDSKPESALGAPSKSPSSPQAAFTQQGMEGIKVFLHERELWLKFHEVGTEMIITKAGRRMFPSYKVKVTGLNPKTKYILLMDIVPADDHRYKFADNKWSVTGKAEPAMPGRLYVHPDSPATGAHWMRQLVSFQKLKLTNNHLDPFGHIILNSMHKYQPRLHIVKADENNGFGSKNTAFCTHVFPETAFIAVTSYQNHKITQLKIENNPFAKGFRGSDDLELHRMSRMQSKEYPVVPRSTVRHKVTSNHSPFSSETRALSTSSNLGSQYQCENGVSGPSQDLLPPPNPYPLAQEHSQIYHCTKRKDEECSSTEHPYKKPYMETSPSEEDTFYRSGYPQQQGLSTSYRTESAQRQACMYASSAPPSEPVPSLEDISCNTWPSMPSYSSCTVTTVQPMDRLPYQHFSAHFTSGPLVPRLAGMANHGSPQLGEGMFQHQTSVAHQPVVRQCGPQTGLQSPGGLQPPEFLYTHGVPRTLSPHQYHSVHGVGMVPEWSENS

[3] = biological target: NKX2-5∆HD (NKX2-5 V142_Q199del) (Rluc-PCA fusion) (mouse) (UniProt P42582); test: as above
[4] = biological target: GATA4 (Rluc-PCA fusion) (mouse) (UniProt Q08369); test: as above
[5] = biological target: T2, TBX20 (Rluc-PCA fusion) (mouse) (UniProt Q9ES03); test: as above
T2 sequence: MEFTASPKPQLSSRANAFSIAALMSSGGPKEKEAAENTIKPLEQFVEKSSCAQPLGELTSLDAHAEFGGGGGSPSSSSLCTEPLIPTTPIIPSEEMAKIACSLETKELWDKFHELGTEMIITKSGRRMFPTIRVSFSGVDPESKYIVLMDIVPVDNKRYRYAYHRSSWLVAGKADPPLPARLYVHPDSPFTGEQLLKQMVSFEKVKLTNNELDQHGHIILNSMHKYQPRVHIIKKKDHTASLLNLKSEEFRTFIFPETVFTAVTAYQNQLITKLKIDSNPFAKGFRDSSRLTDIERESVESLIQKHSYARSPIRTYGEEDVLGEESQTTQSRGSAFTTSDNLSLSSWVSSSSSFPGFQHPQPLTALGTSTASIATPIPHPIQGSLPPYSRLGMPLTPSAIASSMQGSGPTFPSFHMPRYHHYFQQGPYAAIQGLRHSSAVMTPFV

[6] = biological target: NKX2-5 WT (Rluc-PCA fusion) (mouse) (UniProt P42582); test: as above
[7] = biological target: T1, TBX5 (Rluc-PCA fusion) (mouse); test: as above; remark: listed apart in the source
[8] = biological target: NKX2-5∆HD (NKX2-5 V142_Q199del) (Rluc-PCA fusion) (mouse) (UniProt P42582); test: as above; remark: listed apart in the source
[9] = biological target: T3, SRF (Rluc-PCA fusion) (mouse) (UniProt Q9JM73); test: as above
T3 sequence: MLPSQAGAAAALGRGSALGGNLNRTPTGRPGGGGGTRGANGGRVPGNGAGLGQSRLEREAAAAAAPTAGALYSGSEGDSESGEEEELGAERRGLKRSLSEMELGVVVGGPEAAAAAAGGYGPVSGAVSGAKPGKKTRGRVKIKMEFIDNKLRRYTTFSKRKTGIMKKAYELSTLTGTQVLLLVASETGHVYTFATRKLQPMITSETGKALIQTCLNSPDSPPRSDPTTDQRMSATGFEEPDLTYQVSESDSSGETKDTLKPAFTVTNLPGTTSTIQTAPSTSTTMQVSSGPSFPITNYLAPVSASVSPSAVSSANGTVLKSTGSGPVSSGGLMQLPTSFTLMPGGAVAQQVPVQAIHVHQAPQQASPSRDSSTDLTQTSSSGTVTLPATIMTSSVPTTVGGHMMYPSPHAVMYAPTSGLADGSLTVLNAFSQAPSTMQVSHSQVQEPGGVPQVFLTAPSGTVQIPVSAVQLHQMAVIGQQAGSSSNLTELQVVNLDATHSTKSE

[10] = biological target: NKX2-5 WT (Rluc-PCA fusion) (mouse) (UniProt P42582); test: as above; remark: listed apart in the source

binding [1]: no binding
Molecule: NKX2-5 N-terminal region (aa1-135) (yeast two-hybrid fusion) (from UniProt P42582 1-135) (domain or fragment)

binding [2]: binds | binding [3]: binds | binding [4]: binds | binding [5]: binds | binding [6]: binds
Molecule: NKX2-5∆HD (NKX2-5 V142_Q199del) (Rluc-PCA fusion) (from UniProt P42582 1-141; P42582 200-318)

binding [1]: binds
Molecule: NKX2-5 HD (aa137-196) (yeast two-hybrid fusion) (from UniProt P42582 137-196) (domain or fragment)

binding [7]: binds | binding [8]: binds | binding [9]: binds | binding [10]: binds
B1: ELK4 (Rluc-PCA fusion) (protein, UniProt P41158 1-430)
chain: MDSAITLWQFLLQLLQEPQNEHMICWTSNNGEFKLLQAEEVARLWGIRKNKPNMNYDKLSRALRYYYVKNIIKKVNGQKFVYKFVSYPEILKMDPLTVGRIEGDCEALNSIETSSSKDVEYGGKERPPQPGAKTSSRNDYIHSGLYSSFTLNSLNTSNKKLFKSIKIENPAEKLAEKKAQEPTPSVIKFVTTPAKKPPIEPVAAAFATSPSLSPSSEETIQALETLVSPTLPSLETPASISILATTFNPTPPVPSTPLPLKEPPRTPSPPLSSNPDIDTDIESVASQPMELPENLSLEPKNEDSALPEKDKTNNSSRSKKPKGLELTPALVVTGSDPSPLGILSPSLPTASLTPALFSQTPILLTPSPLLSSIHFWSTLSPFAPLSPARLQGANTLFQFPSVLNSHGPFTLSGLDGPSTPGPFSPDLQKT
